Test results taken from paper PMC3534229.
Construct, isoform or probe ends are uncertain for at least one entry. Results from cells or extracts need not show a direct contact. For some assays here: No signal at the amounts used counts as a negative.

Sequences of proteins named here, by UniProt entry; tags and fusion partners are left off.
UniProt P08047, whole entry: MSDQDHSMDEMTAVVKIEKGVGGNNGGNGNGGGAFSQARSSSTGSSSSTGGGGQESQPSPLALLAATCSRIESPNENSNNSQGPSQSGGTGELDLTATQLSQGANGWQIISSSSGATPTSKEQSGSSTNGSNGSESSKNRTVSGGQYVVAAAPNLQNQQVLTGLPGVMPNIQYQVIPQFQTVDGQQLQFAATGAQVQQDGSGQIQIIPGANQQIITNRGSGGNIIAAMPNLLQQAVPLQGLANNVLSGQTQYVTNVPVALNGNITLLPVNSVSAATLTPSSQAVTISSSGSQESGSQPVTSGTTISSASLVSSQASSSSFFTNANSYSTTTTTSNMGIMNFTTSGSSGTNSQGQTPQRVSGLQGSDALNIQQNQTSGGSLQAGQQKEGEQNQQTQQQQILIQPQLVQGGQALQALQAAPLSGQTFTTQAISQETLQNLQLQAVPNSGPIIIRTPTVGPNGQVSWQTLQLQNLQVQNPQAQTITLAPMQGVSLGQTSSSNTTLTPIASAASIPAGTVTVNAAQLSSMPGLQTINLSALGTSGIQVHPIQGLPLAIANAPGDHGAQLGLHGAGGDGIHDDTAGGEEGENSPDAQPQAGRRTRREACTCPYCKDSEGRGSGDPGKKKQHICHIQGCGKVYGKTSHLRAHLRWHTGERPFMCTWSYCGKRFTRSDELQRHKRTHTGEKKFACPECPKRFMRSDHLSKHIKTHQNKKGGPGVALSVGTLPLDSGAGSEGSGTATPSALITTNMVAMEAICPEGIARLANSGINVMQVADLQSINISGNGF

Tests used:
Sp1 [1] = target: Sp1 (UniProt P08047); experiment: competition with a labelled probe; conditions: 50-fold molar excess unlabeled mutant did not compete for the Sp1 band; HeLa nuclear extract; preincubation with competitor or antibody 1 h at 4°C, then labeled probe 30 min at room temperature; salt and pH not given (cited method); protein in an extract; label: none (unlabeled competitor)
Sp1 [2] = target: Sp1 (UniProt P08047); experiment: EMSA supershift; conditions: anti-Sp1 supershifts the band, band stronger in extract of 32°C than 37°C cells, competed by 50-fold excess unlabeled wt; HeLa nuclear extract; preincubation with competitor or antibody 1 h at 4°C, then labeled probe 30 min at room temperature; salt and pH not given (cited method); protein in an extract; label: 32P

TCAGCTGTCCAAGCCTCCTAGT (double strand) [MCRE mutant competitor (mt)]
binding result (Sp1 [1]): no binding

TCAGCTGTCCCCGCCTCCTAGT (double strand) [MCRE probe (wt)]
binding result (Sp1 [2]): binds
